{"source": "patent US20060003347A1", "about": "(priority 2002, published 2006)", "origin": "cited, not measured here", "details": "literature", "note": "The name of at least one read-out is uncertain.", "data": [{"substance": "acetylcholinesterase", "values": [{"measurement": "kcat/KM", "result": "1.6e+08", "unit": "M⁻¹ s⁻¹"}]}]}
